Test results as given in patent publication US4505853A (Ortho Pharmaceutical Corporation, priority 1983, dated 1985).
Where “and” joins values, the source holds several entries; their conditions need not be identical. Equal entries are not always repeated.

Test: general procedure: Boc solid-phase peptide synthesis; p-methylbenzhydrylamine resin (0.25-0.39 mmol/g); BOC-(Cl2Bzl)Tyr-resin ester (0.32 meq/g); dicyclohexylcarbodiimide/1-hydroxybenzotriazole
Conditions: for isolated yield / final HPLC purity: whole synthesis

| Substance | isolated yield | also measured |
| --- | --- | --- |
| Arginyl-α-Aminoisobutyryl-Aspartyl-Valyl-Tyrosine amide | 50% yield |  |
| Boc(NO2^g)Arg-Pro-(Bzl^β)-Asp-Val-Tyr-NHCH3 |  | step yield (coupling step): 83% |
| Nα-Acetyl-Arginyl-Prolyl-Aspartyl-Alanyl-Tyrosine | 55% |  |
| Nα-Acetyl-Arginyl-Prolyl-Aspartyl-Glutamyl-Tyrosine | 53% |  |
| Nα-Acetyl-Arginyl-Prolyl-Aspartyl-Isoleucyl-Tyrosine | 65% |  |
| Nα-Acetyl-Arginyl-Prolyl-Aspartyl-Valyl-Tyrosine-N-Methylamide | 49% | final HPLC purity: 92% by HPLC |
| Nα-Formyl-Arginyl-Prolyl-Aspartyl-Valyl-Tyrosine | 71% |  |
| Nα-Succinoyl-Arginyl-Prolyl-Aspartyl-Valyl-Tyrosine | 78% |  |
| Nα-acetyl-Arginyl-Prolyl-Aspartyl-Valyl-Tyrosine amide |  | final HPLC purity: greater than 99% |
| Nα-acetyl-D-Arginyl-Prolyl-Aspartyl-Valyl-Tyrosine Amide |  | final HPLC purity (run 1): 98.8% and 98.4% and 97.3% |
